Our source for the binding values is doi:10.1101/2021.10.04.463081.

Chains of the proteins cited; added tags and fusions are not shown. Lines headed by an entry give the natural chain unless they say otherwise; changes in a name come on top.
UniProt O75376, whole entry: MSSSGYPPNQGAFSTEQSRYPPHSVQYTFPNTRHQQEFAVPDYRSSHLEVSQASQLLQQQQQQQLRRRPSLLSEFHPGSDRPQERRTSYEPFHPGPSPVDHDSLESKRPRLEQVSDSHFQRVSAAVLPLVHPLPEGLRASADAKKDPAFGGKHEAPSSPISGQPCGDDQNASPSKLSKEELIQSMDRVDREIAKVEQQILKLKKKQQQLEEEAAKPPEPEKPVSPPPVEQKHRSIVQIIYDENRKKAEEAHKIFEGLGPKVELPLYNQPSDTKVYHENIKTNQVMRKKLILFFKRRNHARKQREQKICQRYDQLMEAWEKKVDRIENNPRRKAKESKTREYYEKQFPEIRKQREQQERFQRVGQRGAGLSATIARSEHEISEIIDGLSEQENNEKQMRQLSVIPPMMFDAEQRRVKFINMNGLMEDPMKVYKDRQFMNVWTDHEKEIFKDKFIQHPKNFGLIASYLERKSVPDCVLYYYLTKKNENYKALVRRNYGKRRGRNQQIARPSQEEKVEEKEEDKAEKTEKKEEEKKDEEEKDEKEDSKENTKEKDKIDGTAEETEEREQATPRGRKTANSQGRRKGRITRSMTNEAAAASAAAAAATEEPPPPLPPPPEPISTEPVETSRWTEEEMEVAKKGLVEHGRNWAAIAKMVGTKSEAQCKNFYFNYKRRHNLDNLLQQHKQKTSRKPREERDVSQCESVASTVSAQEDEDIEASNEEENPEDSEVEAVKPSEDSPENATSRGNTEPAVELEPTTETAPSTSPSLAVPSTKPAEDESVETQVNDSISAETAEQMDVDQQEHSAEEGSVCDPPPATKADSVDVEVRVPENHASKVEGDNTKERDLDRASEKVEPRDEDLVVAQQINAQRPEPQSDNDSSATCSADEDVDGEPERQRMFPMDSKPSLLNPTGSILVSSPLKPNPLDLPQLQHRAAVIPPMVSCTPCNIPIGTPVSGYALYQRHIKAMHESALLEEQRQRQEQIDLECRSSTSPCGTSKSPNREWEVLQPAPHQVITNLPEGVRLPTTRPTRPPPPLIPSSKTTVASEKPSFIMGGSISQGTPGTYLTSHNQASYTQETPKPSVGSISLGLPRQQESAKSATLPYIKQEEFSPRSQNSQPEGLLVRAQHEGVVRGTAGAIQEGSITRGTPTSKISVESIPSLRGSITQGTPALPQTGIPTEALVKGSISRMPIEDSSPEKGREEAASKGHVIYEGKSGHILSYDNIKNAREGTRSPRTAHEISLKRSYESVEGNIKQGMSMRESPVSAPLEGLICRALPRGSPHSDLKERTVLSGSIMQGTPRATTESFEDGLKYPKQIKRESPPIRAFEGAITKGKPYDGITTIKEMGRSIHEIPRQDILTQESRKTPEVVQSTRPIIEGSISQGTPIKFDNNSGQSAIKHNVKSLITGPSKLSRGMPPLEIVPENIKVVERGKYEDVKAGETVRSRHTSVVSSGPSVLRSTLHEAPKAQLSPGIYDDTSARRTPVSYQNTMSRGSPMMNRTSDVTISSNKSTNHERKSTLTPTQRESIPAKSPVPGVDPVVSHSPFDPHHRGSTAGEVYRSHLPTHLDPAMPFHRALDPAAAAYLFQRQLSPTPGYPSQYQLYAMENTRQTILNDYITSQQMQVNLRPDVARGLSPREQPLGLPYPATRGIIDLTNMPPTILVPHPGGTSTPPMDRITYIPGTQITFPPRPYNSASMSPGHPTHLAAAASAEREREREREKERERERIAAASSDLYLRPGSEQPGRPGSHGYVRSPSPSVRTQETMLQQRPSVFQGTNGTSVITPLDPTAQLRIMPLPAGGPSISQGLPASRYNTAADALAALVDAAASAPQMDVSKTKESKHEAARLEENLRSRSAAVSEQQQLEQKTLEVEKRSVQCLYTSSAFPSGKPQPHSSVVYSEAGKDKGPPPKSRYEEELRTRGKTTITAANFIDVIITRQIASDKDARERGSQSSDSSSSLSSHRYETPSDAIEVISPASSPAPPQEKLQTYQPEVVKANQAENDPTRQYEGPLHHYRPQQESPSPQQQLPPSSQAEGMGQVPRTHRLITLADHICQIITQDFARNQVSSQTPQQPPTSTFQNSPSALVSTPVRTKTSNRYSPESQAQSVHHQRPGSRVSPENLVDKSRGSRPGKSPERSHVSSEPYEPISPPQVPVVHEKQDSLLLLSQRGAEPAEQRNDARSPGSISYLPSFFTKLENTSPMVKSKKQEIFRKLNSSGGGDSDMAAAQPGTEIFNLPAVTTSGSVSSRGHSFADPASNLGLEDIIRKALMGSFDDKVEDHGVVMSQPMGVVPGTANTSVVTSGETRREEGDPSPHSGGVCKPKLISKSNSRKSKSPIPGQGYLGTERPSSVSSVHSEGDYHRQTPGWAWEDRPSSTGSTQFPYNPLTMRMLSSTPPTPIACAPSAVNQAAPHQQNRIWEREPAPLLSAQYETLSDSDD

Like-named read-outs stand apart in the source and are kept apart here. These are yes or no findings as the source states them, for the method shown. Binding seen in cells or lysates may run through a third protein. Some results given as binding are weak or reduced against the parent protein; the word gives no strength. For some assays here: Where a sequence is shown, tags or fusion partners need not be part of it.

Targets include HA-HOXB13-G84E (UniProt Q92826); HA-HOXB13-WT (UniProt Q92826); Flag-HOXB13 FL (UniProt Q92826); HOXB13 aa150-280 (UniProt Q92826); HOXB13 aa210-284 (UniProt Q92826); HOXB13 aa70-284 (UniProt Q92826); HA-HDAC3 FL (aa1-428) (UniProt O15379); HA-HDAC3 aa1-120 (UniProt O15379); HA-HDAC3 aa1-180 (UniProt O15379); HA-HDAC3 aa1-316 (UniProt O15379); HA-HDAC3 aa120-428 (UniProt O15379); Flag-tagged HDAC1 (UniProt Q13547); Flag-tagged HDAC3 (UniProt O15379).

Assay in all cases: co-IP
The target in assay [1] is Flag-HOXB13 ΔHOX (aa210-270) (UniProt Q92826).
In assay [2] the target is Flag-HOXB13 ΔMEIS (aa70-150) (UniProt Q92826).
Assay [3] has as its target HOXB13 (co-expressed, tag not stated) (UniProt Q92826).
Assay [4] deals with HOXB13 (human (endogenous in LNCaP and PC-3)) (UniProt Q92826).
The target is the same in assay [5]. This is another data set of the same source.
The target of a further assay is V5-NCoR1 FL, O75376. As to conditions: remark: other sources report otherwise.

Regarding “HDAC1 (from UniProt Q13547 1-482) (enzyme)”, the binding result in the assay with HA-HOXB13-G84E is “binds weakly”; with HA-HOXB13-WT it was “binds”.
On to “HDAC3 (co-expressed, tag not stated) (from UniProt O15379 1-428) (enzyme)”, for which the binding entry is reported as “binds” in the assay with Flag-HOXB13 FL; “binds” in assay [1]; “no binding” in assay [2]; “binds” in assay [3]; “binds weakly” with HOXB13 aa150-280; “binds weakly” with HOXB13 aa210-284. Besides, the binding entry with HOXB13 aa70-284 is “binds”.
As for “HDAC3 (from UniProt O15379 1-428) (enzyme)”, the binding result in assay [4] is listed as “binds”; with HA-HOXB13-G84E, “binds weakly”; with HA-HOXB13-WT it was “binds”; in assay [5] it was “binds”.
Take “HOXB13 (co-expressed, tag not stated) (from UniProt Q92826 1-284)”: the binding entry was “binds” with HA-HDAC3 FL (aa1-428); “no binding” in the assay with HA-HDAC3 aa1-120; “no binding” with HA-HDAC3 aa1-180; “no binding” in the assay with HA-HDAC3 aa1-316; “binds” with HA-HDAC3 aa120-428.
Consider HOXB13 (from UniProt Q92826 1-284), for which the binding result with Flag-tagged HDAC1 and in the assay with Flag-tagged HDAC3 was “binds” each time.
Consider “androgen receptor (AR) (from UniProt P10275 1-920)”, for which the binding result in the assay with HA-HOXB13-G84E and with HA-HOXB13-WT was “binds” in each case.

B1: HDAC3 (co-expressed, tag not stated), O15379 1-428 (enzyme)
chain: MAKTVAYFYDPDVGNFHYGAGHPMKPHRLALTHSLVLHYGLYKKMIVFKPYQASQHDMCRFHSEDYIDFLQRVSPTNMQGFTKSLNAFNVGDDCPVFPGLFEFCSRYTGASLQGATQLNNKICDIAINWAGGLHHAKKFEASGFCYVNDIVIGILELLKYHPRVLYIDIDIHHGDGVQEAFYLTDRVMTVSFHKYGNYFFPGTGDMYEVGAESGRYYCLNVPLRDGIDDQSYKHLFQPVINQVVDFYQPTCIVLQCGADSLGCDRLGCFNLSIRGHGECVEYVKSFNIPLLVLGGGGYTVRNVARCWTYETSLLVEEAISEELPYSEYFEYFAPDFTLHPDVSTRIENQNSRQYLDQIRQTIFENLKMLNHAPSVQIHDVPADLLTYDRTDEADAEERGPEENYSRPEAPNEFYDGDHDNDKESDVEI
For the molecule B1, the binding result in the assay with V5-NCoR1 FL, O75376 is given as “binds”.
